This note sets out measurements from patent publication US20250011448A1 (STAIDSON BIOPHARMA, published 2025).

Chains of the proteins cited; added tags and fusions are not shown. Lines headed by an entry give the natural chain unless they say otherwise; changes in a name come on top.
UniProt P20333: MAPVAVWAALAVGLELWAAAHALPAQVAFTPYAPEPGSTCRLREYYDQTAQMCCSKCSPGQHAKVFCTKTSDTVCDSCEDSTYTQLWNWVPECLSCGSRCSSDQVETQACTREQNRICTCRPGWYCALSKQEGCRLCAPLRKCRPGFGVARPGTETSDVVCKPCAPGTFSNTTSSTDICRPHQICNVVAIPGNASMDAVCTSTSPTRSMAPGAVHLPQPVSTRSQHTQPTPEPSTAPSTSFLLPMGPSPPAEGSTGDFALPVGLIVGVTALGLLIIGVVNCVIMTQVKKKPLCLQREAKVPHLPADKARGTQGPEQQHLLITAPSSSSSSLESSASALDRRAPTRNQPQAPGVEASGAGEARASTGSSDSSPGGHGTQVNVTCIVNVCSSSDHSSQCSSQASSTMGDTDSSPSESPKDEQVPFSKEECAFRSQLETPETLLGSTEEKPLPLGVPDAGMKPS

For test [1], the target named is human TNFR2 extracellular domain fused to human IgG1 Fc (human) (UniProt P20333). Kind of test: blocking ELISA: antibody pre-mixed with TNFR2-huFc, binding to plate-coated human TNFα measured; y axis % inhibition of binding to huTNFa. In general terms: An ELISA detects its analyte on a solid surface through an enzyme-linked reagent.
Test [2] has the same target. The experiment in a line: blocking ELISA.

No constants are given. Whether binding was seen depends on the method and setting. Some results given as binding are weak or reduced against the parent protein; the word gives no strength.

B1: 85G8.4 chimeric anti-TNFR2 antibody (antibody, V domains shown)
VH: EVQLQQSGPELVKPGASVKISCKTSGYTFTDFNMDWVKQSHGKSLEWIGYINPNNGDAAYNQKFKSKATLTVDKSSNTAYMELHSLTSDDSAVYYCARWGWAFAYWGQGTLVTVSA
VL: DIVMTQSHKIMSTSVGDRVSITCKASQDVKTAVAWYQQKPGQSPKLLIYATSYRYTGVPDRFTGSGSGTDFTFTISTVQAEDLAVYYCQQHYSIPYTFGGGTKLEIK
notes: Chimeric: mouse variable domains with human constant regions, made as recombinant IgG1
Take B1: the binding entry in test [1] and in test [2] was “binds” throughout.

B2: 15H10 chimeric anti-TNFR2 antibody (antibody, V domains shown)
VH: DVQLQESGPGLVTPSQSLSLTCSVTGYSITSGYYWNWIRQFPGNKLEWMGYITYDGNNNYNPSLKSRFSITRDTSKNQFFLKLNSVTSEDTATYYCARGDYGDSAMDYWGQGTSVTVSS
VL: EIVLTQSPAITAASLGQKVTITCSASSGVNYMHWYQQKSGTSPKPWIYEISKLASGVPARFSGSGSGTSYSLTISSMEAEDAAIYYCQQWNYPLITFGAGTKVELK
notes: as for B1
For B2, the binding result in test [1] and in test [2] was “binds” in each case.

B3: 11C1 chimeric anti-TNFR2 antibody (antibody, V domains shown)
VH: DVQLRESGPGLVTPSQSLSLTCSVTGYSITSGYYWNWIRQIPGNKLEWMGYITYDGNNNYDPSLKNRISITRDTSKNQFFLTLNSVTSEDTATYYCARGDYGDSAMDYWGQGTSVTVSS
VL: EIVLTQSPAITAASLGQKVTITCSASSSVSYMHWYQQKSGTSPKPWIYEISKLASGVPARFSGSGSGTSYSLIISSMEAEDAAIYYCQQWNYPLITFGAGTKLELK
notes: as for B1
On to B3, for which the binding entry in test [1] and in test [2] was “binds” in each case.

B4: 102E4 chimeric anti-TNFR2 antibody (antibody, V domains shown)
VH: EVLLQQSGAELVRPGASVKLSCTASGFNIKDDFIHWVQQRPEQGLEWIGRINPSNANTEYAPKFQDKATITTDTSSNTAYLQLSSLTSEDTAVYYCTRNDGYYDGLFYWGQGTTLTVSS
VL: DIVMTQSHKFMSSSVGDRVSITCKASQDVGTAVAWYQQKPGQSPKLLIYWASTRHTGVPDRFTGSGSGTDFTLTISNVQSEDLADYFCQQYSSYPFTFGSGTKLEIK
notes: as for B1
With B4, the binding entry in test [1] and in test [2] was “binds” in each case.

B5: 29G3 chimeric anti-TNFR2 antibody (antibody, V domains shown)
VH: EVMLVESGGASVKPGGSLKLSCAASGFTFSNFAMSWVRQTPEKRLEWVATIRSGDNYSYYSDNVKGRFTISRDNARNTLYLQMSSLRSKDTSIYYCARNWDKVFDYWGQGTTLTVSS
VL: DIVLTQSPASLAVSLGQRATISCRASESVDSYGYSFMHWYQQKPGQPPKLLIYRASNLKSGIPARFSGSGSRTDFTLTINPVEADDVATYYCQQSNEDHTFGGGTKLEIK
notes: as for B1
With B5, the binding entry in test [1] and in test [2] was “binds” in each case.
